The results in this text go back to PMC6349449.

The chains behind the UniProt entries cited, without tags or fusion partners.
UniProt O09106: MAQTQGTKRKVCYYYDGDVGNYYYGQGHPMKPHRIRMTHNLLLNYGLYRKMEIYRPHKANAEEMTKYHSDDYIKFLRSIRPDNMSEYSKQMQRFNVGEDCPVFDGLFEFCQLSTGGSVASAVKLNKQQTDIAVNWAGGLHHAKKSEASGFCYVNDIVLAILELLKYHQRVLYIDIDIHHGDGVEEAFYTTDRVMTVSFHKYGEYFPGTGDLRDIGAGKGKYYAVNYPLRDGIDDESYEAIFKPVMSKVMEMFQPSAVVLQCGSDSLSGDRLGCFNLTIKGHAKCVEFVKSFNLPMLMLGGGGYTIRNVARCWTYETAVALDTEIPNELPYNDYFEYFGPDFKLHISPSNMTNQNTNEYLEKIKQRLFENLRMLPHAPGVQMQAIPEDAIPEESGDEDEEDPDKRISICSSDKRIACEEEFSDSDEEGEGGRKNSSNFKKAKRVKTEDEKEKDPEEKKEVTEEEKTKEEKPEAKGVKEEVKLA

No constants are given. Whether binding was seen depends on the method and setting. Binding seen in cells or lysates may run through a third protein. Binding can be weak; no strength is given.

This test concerns the target Histone deacetylase 1 (Hdac1) (UniProt O09106). Briefly: pull-down; GST pulldown; which partner carried GST and the conditions are not told in the text shown (Supplementary Figure 3).

Consider “Transducin-like enhancer of split 3 (Tle3) (from UniProt Q08122-4)”, for which the binding result is on record as “binds”.
